Source: paper PMC6120060
These are yes or no findings as the source states them, for the method shown. In cells and extracts the contact can be indirect. Binding can be weak; no strength is given.

Chains of the proteins cited; added tags and fusions are not shown. Lines headed by an entry give the natural chain unless they say otherwise; changes in a name come on top.
UniProt Q9LUG5: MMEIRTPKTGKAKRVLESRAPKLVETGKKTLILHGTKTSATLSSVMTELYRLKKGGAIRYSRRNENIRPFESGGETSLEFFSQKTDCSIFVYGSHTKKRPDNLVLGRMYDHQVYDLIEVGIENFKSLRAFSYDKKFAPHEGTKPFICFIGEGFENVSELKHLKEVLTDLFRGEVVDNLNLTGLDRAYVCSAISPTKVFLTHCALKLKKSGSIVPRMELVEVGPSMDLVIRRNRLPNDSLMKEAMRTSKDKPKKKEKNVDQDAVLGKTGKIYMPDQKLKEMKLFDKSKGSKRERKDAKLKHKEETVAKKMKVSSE
UniProt Q9SH88: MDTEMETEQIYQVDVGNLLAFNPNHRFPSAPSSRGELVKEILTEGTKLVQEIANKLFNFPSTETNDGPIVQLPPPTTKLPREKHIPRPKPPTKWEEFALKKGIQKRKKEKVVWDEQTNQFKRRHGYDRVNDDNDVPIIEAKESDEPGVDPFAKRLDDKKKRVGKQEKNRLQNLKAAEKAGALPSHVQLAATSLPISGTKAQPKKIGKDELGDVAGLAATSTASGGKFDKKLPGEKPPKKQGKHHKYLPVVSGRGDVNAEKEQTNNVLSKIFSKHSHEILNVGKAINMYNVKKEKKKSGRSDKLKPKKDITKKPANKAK

Key:
[1] = target: ARPF2-GFP (GFP-tagged ARPF2) (Arabidopsis thaliana) (UniProt Q9LUG5); experiment: co-IP; lysates of N. benthamiana leaves co-infiltrated with ARPF2-GFP and ARRS1-MYC, three days after infection; 25 mM Tris-HCl pH 7.5, 150 mM NaCl, 0.1% NP40, 10% glycerol; precipitated with anti-GFP antibody and protein A agarose; blots with anti-GFP and anti-MYC
[2] = target: ARPF2-nGFP (ARPF2 fused to the N-terminal half of GFP) (Arabidopsis thaliana) (UniProt Q9LUG5); experiment: split reporter; split-GFP BiFC; nGFP and cGFP fusions co-expressed in N. benthamiana leaves by co-infiltration, with FIB1-mCherry as nucleolar marker; GFP fluorescence observed by microscopy two or three days after infection

Row | binding [1] | binding [2] | Substance
1 | binds |  | ARRS1-MYC (MYC-tagged ARRS1) (from UniProt Q9SH88)
2 |  | binds | ARRS1-cGFP (ARRS1 fused to the C-terminal half of GFP) (from UniProt Q9SH88)
